# Test results as given in patent US9504252B2, “Microbiocides and uses thereof” (Buckman Laboratories International, Inc., priority 2014, dated 2016).
# Columns and labels:
# [1] = post inversion viscosity of polyacrylamide fluid with biocide (Brookfield viscometer); conditions: for polymer viscosity relative to control: 250 ppm biocide
# [2] = effect of biocide on oxygen scavenger (ORP); assay type: physicochemical; conditions: 500 ppm biocide, after 10 minutes
Structure (SMILES),"polymer viscosity relative to control ([1]; 0.1% PAM, FIG. 1)",ORP lower than the control [2],viscosity lower than with GA ([1]; 0.1% PAM),"polymer viscosity relative to control and GA sample ([1]; higher biocide concentrations (up to 1,000 ppm), FIG. 1)"
"O=CCCCC=O [GA, glutaraldehyde, reference compound]",slightly lower,,,
"CNC(=S)[S-].[Na+] [SNMDTC, sodium-N-methyldithiocarbamate]",slightly higher,approximately 2 ×,approximately 2.75%,slightly lower
